According to patent US20210162000A1 (INSTITUT DE CARDIOLOGIE DE MONTREAL, published 2021):
No constants are given. Whether binding was seen depends on the method and setting. Binding seen in cells or lysates may run through a third protein. Some results given as binding are weak or reduced against the parent protein; the word gives no strength. One block for each molecule: values may come before it.

By UniProt entry, the sequences of proteins in these tests, tags left out. Where a name states a change or a piece, a line headed by the entry shows the natural chain unless it says otherwise.
UniProt Q8NBP7: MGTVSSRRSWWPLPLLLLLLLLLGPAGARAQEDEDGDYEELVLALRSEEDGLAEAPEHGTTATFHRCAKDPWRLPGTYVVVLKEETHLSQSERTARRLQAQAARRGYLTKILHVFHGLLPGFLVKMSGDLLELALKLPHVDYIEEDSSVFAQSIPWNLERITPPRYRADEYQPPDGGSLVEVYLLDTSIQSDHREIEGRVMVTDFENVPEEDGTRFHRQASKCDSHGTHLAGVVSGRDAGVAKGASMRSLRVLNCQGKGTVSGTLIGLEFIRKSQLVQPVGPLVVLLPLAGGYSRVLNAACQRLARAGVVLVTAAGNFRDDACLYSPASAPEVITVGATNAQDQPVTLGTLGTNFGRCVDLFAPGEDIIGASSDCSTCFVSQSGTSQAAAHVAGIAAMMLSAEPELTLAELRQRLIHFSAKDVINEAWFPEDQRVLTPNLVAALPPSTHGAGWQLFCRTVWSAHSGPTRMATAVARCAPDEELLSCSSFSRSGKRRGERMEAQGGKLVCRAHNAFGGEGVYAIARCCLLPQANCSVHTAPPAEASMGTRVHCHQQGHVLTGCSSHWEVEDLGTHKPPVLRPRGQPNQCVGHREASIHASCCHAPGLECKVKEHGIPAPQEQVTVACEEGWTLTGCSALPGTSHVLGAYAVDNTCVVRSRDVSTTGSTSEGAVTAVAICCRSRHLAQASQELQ

Assays:
[1] = molecular target: Proprotein convertase subtilisin/kexin type 9 (PCSK9), endogenous in HepG2 and Huh-7 cells (human) (UniProt Q8NBP7); assay: DSP cross-linking, IP with anti-PCSK9 polyclonal antibody from HepG2 cells, silver staining, LC-MS/MS
[2] = molecular target: Recombinant human PCSK9-V5-His6 (human) (UniProt Q8NBP7); assay: in vitro competitive pull-down: PCSK9-V5-His6 pre-incubated with SEQ ID NO 6, then LDLR ectodomain, mAb-V5 and A/G-agarose; immunoblot
[3] = molecular target: Recombinant human PCSK9-V5-His6 (human) (UniProt Q8NBP7); assay: in vitro competitive pull-down with PCSK9-V5-His6 and recombinant human LDLR ectodomain, immunoblot

- binding [1]: binds
Molecule: Glucose-regulated protein 94 (GRP94), endogenous (from UniProt P14625 22-803)

- binding [2]: binds
- binding [3]: binds
B1: Recombinant SEQ ID NO 6, GRP94 CBD-CT (aa 652-799), His6 tag purified from E. coli (other)
chain: YGWSGNMERIMKAQAYQTGKDISTNYYASQKKTFEINPRHPLIRDMLRRIKEDEDDKTVLDLAVVLFETATLRSGYLLPDTKAYGDRIERMLRLSLNIDPDAKVEEEPEEEPEETAEDTTEDTEQDEDEEMDVGTDEEEETAKESTAE
notes: also called NO; 43; GRP94 CDB-CT domain; not shown: His6 tag from pET24b(+)
